Data published in patent publication US20170360949A1 (TIANJIN INSTITUTE OF INDUSTRIAL BIOTECHNOLOGY CHINESE …, published 2017).
Results are given in words; binding and its absence hold for the method and conditions named. Binding seen in cells or lysates may run through a third protein. Some results given as binding are weak or reduced against the parent protein; the word gives no strength.

Molecular target: Z1Z2 (two Ig domains at the N terminus of the titin molecule) (human)
Experiment: complex formation by mixing in urea and dialysis, then co-purification

B1: TeN (N terminus of Telethonin, Cys mutated to Ser) (other)
chain: GAMATSELSSEVSEENSERREAFWAEWKDLTLSTRPEEGSSLHEEDTQRHETYHQQGQSQVLVQRSPWLMMRMGILGRGLQEYQLPYQRVLP
notes: also called polypeptide B
- binding: binds
